Measured values reported in US20220356233A1.
Numbering of substitutions follows the chain as printed. Results are given in words; binding and its absence hold for the method and conditions named. Some binding calls cover weakened binding; strength is not graded here.

Amino acid sequences for entries named in this document (tags omitted). Residues count along the entry.
UniProt P05067, residues 672-713: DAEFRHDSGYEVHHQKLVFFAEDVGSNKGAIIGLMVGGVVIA

B1: mAbSL 513 (antibody, V domains shown)
VH: QQQLVESGGGLVKPGASLTLTCTASGFSFSRYSDMCWVRQPPGKGLEWIACIGISSGTTYYASWAKGRFTISKTSSTTVTLQMTSLTAADTATYLCTRAIGPFHFNLWGPGTLVTVSS
VL: AIVMTQTPSSRSVPVGDTVTISCQASESVYNNNRLAWYQQKAGQPPKLLIYGASTLASGVPSRFKGSGSGTQFTLTISDVVCDDAATYYCAGYKSGSTDGCAFGGGTEVVVKG
B2: mAbSL 550 (antibody, V domains shown)
VH: B1 VH with Y32D, T58I, S63N, K66R, L95F, T97A
VL: B1 VL with R11K, S22D, N31S, N32K, A42P, I77V, S97I, T98G, C101I

Target: Aβ (assembly state not specified) (UniProt P05067)
Test: indirect ELISA of 293-F supernatants on Aβ42 protofibrils, monomers and fibrils; class in Table 4

Binder	binding
B1	binds
B2	binds
